These results are taken from PubChem BioAssay AID1487 (National Center for Advancing Translational Sciences (NCATS), 2009).

The assay is described as follows: qHTS Assay for Modulators of Lamin A Splicing. To be noted: HeLa LMNA splicing GFP/RFP minigene ratio, 48 h. The method in brief:
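S3 HeLa cells stably expressing lamin A-EGFP splicing minigene plus DsRed2, 600 cells/well, 48 h compound exposure at 37C. Laser-scanning cytometry; analysed as GFP (500-530 nm)/RFP (575-640 nm) total intensity ratio; 0.5% DMSO vehicle.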

[1] abbreviates: measured here: RFP viability control channel.
[2] abbreviates: measured here: GFP splicing reporter channel.

Some of the results follow. Further columns of the screen follow, without active or inactive calls. Compounds called inactive in the main read-out are mostly missing here. The note in brackets gives the kind of curve behind each potency; many fits are weak.

In general, AC50 refers to the concentration at which the activity in the assay is half-maximal. On to `CCOc1ccc(C2C=C(c3ccc(C)cc3)Nc3ncnn32)cc1` (stereo not drawn), for which, under setting [1], the AC50 is 31.6 µM [rising, single point].

With `O=C(c1ccccc1)c1ccc(N2CCCC2)cc1`, under setting [1], the AC50 was 28.2 µM [rising, single point]. On the same count and under the same terms, the result for `O=C(N/N=C/c1cccnc1)c1cc(-c2cccs2)nc2ccccc12` reads 11.2 µM [rising, partial curve]; that for `O=C(CCCN1C(=O)/C(=C\c2ccco2)SC1=S)Nc1cccc2ccccc12`, 10 µM [rising, partial curve]. Still for that read-out and setting: next, `COc1ccc(Br)cc1CNC(=O)CCc1nc(-c2ccccc2F)no1`: 22.4 µM [rising, single point].

`O=c1c2sccc2nc(SCc2ccc([N+](=O)[O-])cc2)n1Cc1ccccn1`: the AC50 reads like this: under setting [2], 15.8 µM [rising, single point]; under setting [1], 35.5 µM [rising, single point]. For the compound `CN1CC2(C(=O)c3ccccc3)CN(C)CC(C(=O)c3ccccc3)(C1)C2`, the AC50 is 6.31 µM [falling, single point] under setting [2] and 3.98 µM [falling, partial curve] under setting [1]. On to `Cc1ccc(OCC(=O)NCC2(N3CCN(C)CC3)CCCCC2)cc1`, for which the AC50 under setting [1] was 25.1 µM [falling, partial curve, poor fit]. On the same count and under the same terms, the result for `O=C(O)CCc1nn2c3ccccc3n(CCO)c2nc1=O` reads 35.5 µM [falling, single point]; that for `CC(=O)c1c(C)[nH]c(C(=O)COc2cc(C)ccc2C(C)C)c1C`, 4.47 µM [rising, partial curve, poor fit]. Consider `NC(=O)OC[C@H](O)COc1ccc(Cl)cc1`, for which, under setting [2], the AC50 is 1.12 µM [rising, partial curve]. The same measure, in the same setting: next, `Cc1ccc(O)c(NC(=O)c2cc(-c3ccc(F)cc3)no2)c1`: 0.00316 µM [falling, full curve, poor fit]. Still for that read-out and setting: the result for `O=C1c2ccsc2SCCN1Cc1ccccc1Cl` reads 8.91 µM [rising, partial curve].

As for `Cc1nc(-c2ccccc2)sc1C(=O)/C=C/c1ccc(Cl)cc1`, the AC50 was 7.94 µM [falling, partial curve] under setting [2] and 8.91 µM [falling, partial curve] under setting [1]. `CC(C)CCNC(=O)c1cnc2sc(N3CCCCCC3)nn2c1=O`: the AC50 was 15.8 µM [rising, partial curve, poor fit] under setting [2] and 1.12 µM [rising, full curve, poor fit] under setting [1]. As to `COc1ccc(-c2cc(CNC(=O)CN(C)Cc3ccccc3)on2)cc1`, the concentration at half-maximal activity (AC50) under setting [2] is 3.55 µM [rising, single point]. Take `CCCC(=O)Nc1ccc(NC(=O)c2ccccc2Cl)nc1`: the concentration at half-maximal activity (AC50) under setting [1] is 35.5 µM [rising, single point]. Still for that read-out and setting: the result for `Cc1ccc(C2(c3noc(CN4CCC(C(=O)N5CCOCC5)CC4)n3)CCCC2)cc1` reads 0.141 µM [falling, full curve, poor fit].

Turning to `Cc1cc(C)c(CSc2ncc(-c3ccc([N+](=O)[O-])cc3)[nH]2)c(C)c1`, the AC50 is 35.5 µM [falling, single point] under setting [2] and 35.5 µM [falling, single point] under setting [1].

`O=C(COC(=O)c1c2c(nc3ccccc13)CCCCC2)c1ccc(Cl)s1`: under setting [1], the concentration at half-maximal activity (AC50) was 3.16 µM [rising, single point]. Same read-out and setting: the result for `CSc1cccc(NC(=O)C2CCCN2S(=O)(=O)c2ccc(Br)s2)c1` (stereo not drawn) reads 11.2 µM [rising, single point]; that for `Cc1ccc2nc(SCc3cn4cccnc4n3)[nH]c2c1`, 4.47 µM [rising, full curve, poor fit]; that for `Clc1ccc(-c2nnnn2-c2ccc(Cl)c(Cl)c2)cc1Cl`, 31.6 µM [rising, single point]. With `COc1ccc(-c2nc(CNC(=O)Nc3ccccc3)c(C)o2)c(OC)c1`, the AC50 under setting [2] is 0.158 µM [rising, full curve, poor fit]. Consider `Cc1c(Cl)cccc1NC(=O)C(=O)NCCc1csc2nc(-c3ccccc3F)nn12`, for which the AC50 was 35.5 µM [falling, single point] under setting [2] and 3.55 µM [falling, partial curve, poor fit] under setting [1]. Turning to `CC(C)n1cc(/C=C2/SC(=O)N(CC(=O)Nc3ccc4c(c3)OCO4)C2=O)c2ccccc21`, the AC50 under setting [1] is 35.5 µM [falling, single point]. On the same count and under the same terms, the result for `COc1cc(N/N=C(\C)c2ccc(N)cc2)nc(-c2ccccc2)n1` reads 35.5 µM [rising, single point]; that for `N#Cc1c(-n2cccc2/C=N/O)sc2c1CCCC2`, 0.0141 µM [falling, full curve, poor fit]. On to `CC(C)(C)c1nc(SCC(=O)Nc2nc3c(s2)CCCC3)c2ccccc2n1`, for which the AC50 by setting is: under setting [2], 14.1 µM [falling, partial curve]; under setting [1], 2.24 µM [rising, partial curve]. As to `Cc1cc(C)cc(Oc2nc(C(F)(F)F)nc3ccccc23)c1`, the AC50 under setting [1] is 20 µM [rising, single point]. Same read-out and setting: next, `Cc1ccc(S(=O)(=O)c2cn(Cc3ccccc3)c3cc(N4CCOCC4)c(F)cc3c2=O)cc1`: 10 µM [rising, partial curve]. As to `COc1cccc(NC(=S)N(CCc2c(C)[nH]c3ccccc23)Cc2ccco2)c1`, the AC50 under setting [2] is 10 µM [rising, single point] and the AC50 under setting [1] was 15.8 µM [rising, partial curve].

Consider `Cc1ccc(S(=O)(=O)/N=C(/Nc2c(C)n(C)n(-c3ccccc3)c2=O)c2ccccc2)cc1`, for which the AC50 was 3.16 µM [falling, single point] under setting [2] and 3.55 µM [falling, single point] under setting [1]. Take `COc1cccc(C(=O)Nc2cccc(-c3nnc(-c4ccco4)o3)c2)c1`: the AC50 by setting is: under setting [2], 35.5 µM [falling, single point]; under setting [1], 5.01 µM [falling, partial curve, poor fit]. As to `COc1cc(C(=O)OCC(=O)c2c[nH]c3ccccc23)ccc1OCC(=O)N1CCOCC1`, the AC50 under setting [2] was 10 µM [rising, single point].

Consider `CCCCNC(=O)CSc1nc2ccc(NC(=O)CSc3nnc(N)s3)cc2s1`, for which, under setting [1], the AC50 was 35.5 µM [rising, single point]. As for `C=CCn1c(O)c(N=NC(=S)Nc2ccc(OC)cc2)c2ccccc21`, the AC50 is 6.31 µM [rising, partial curve] under setting [2] and 10 µM [rising, partial curve] under setting [1].
